Reference: the supplement of paper PMC12282887
These are raw signals, not scaled to a control.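 For antimicrobials the highest concentration approximated the MIC. Most other compounds topped out at 500 µM, and known inducer-like compounds reached up to 1 mM. Inocula for deletion strains were tenfold smaller, and any well growing below 10% of the overall median was considered non-growing.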

Tested on: Escherichia coli BW25113
Assay: growth (OD600 area under curve, 8 h) (OD600 x h); higher = more growth
Procedure: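 E. coli BW25113 reporter strains (wild type, ΔmarA, ΔsoxS, Δrob, each carrying one of 8 lux reporter plasmids) were grown in 40 µl LB in 384-well plates at 37°C, 800 rpm, with each compound at 4 two-fold concentrations, in biological duplicates. Growth is the baseline-corrected OD600 area under the curve over 8 h (0-8 h WT, 1-9 h deletion strains).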

CCCC(=O)O [Butyrate]
growth
Conditions	reporter plasmid: EVC	reporter plasmid: acrABp	reporter plasmid: marRABp	reporter plasmid: micFp	reporter plasmid: ompFp	reporter plasmid: robp	reporter plasmid: soxSp	reporter plasmid: tolCp
6.9 µg/ml, genetic background: wild type	2.8	3.28	3.3991	3.08	3.19	3.36	2.93	3.11
6.9 µg/ml, genetic background: ΔmarA	3.34	3.87	3.75	3.22	3.44	3.77	2.73	2.77
6.9 µg/ml, genetic background: Δrob	3.08	3.05	3.3	3.31	2.7	2.68	2.85	3.07
6.9 µg/ml, genetic background: ΔsoxS	3.11	3.05	3.08	2.63	3.22	3.28	3.09	3.07
13.8 µg/ml, genetic background: wild type	2.54	3.22	3.35	2.98	3.11	3.305	2.8	2.89
13.8 µg/ml, genetic background: ΔmarA	3.08	4.1	3.42	3.03	3.33	3.5	2.44	2.69
13.8 µg/ml, genetic background: Δrob	2.95	2.81	3.33	3.12	2.65	2.69	2.86	3.04
13.8 µg/ml, genetic background: ΔsoxS	2.95	2.98	3.13	2.53	2.89	3.16	3.02	3.13
